Laboratory results: US20180362643A1 (Amgen, published 2018)
Residue numbers refer to the chain shown, from its start. Results are given in words; binding and its absence hold for the method and conditions named. Ends that are not written are not given here.

T1: amino terminal PACAP38 peptide (amino acids 1-13) (human)
T1 sequence (peptide): HSDGIFTDSYSRY

T2: PACAP38 peptide fragment 26-33 (human)
T2 construct: also called peptide No. 2
T2 peptide: VLGKRYKQ

T3: 16-23
T3 sequence (peptide): QMAVKKYL

T4: 19-25
T4 sequence (peptide): VKKYLAA

T5: 9-18
T5 sequence (peptide): SYSRYRKQMA

B1: mAb5 (antibody, V domains shown)
VH: QSVEESGGRLVTPGTPLTLTCTVSGFSLSTYNMCWVRQAPGKGLEWVGFINSDDSAYYASWAKGRFTFSKTSTTVDLKIASPTTEDTATYFCARYDWDYYYSRLDLWGPGTLVTVSS
VL: DIVLTQTPASVSAAVGGTVSISCQSSESVYNNNYLSWFQQKPGQPPKLLIYGASTLASGVPSRFEGSGSGTQFTLTISDVQCDDAATYYCLGDYIIIENIFGGGTEVVVKG
notes: Rabbit monoclonal antibody (SLAM), recombinant; also called monoclonal anti-PACAP antibody 5; 5 (c71)
B2: mAb2 (antibody, V domains shown)
VH: QSLEESGGGLVQPEGSLTLTCTASGFSFNSSSYMCWVRQAPGKGLEWIGCIFTGSSGNTYYATWAQGRFTISKTSTTVTLEMTSLTAADTATYFCARDRAYFLVGYFYATYYFDLWGPGTLVTVSS
VL: DVVMTQTPSPVSAQVGGTVTINCQASESIDSDLSWYQQKPGQPPKLLIYRTFTLESGVPSRFKGSGSGTDYTLTISDLECADAAIYYCQCTDGSSISGSYGWDAFGGGTEVVVKG
notes: Rabbit monoclonal antibody (SLAM), recombinant; also called monoclonal anti-PACAP antibody 2; 2 (c81)
B3: mAb3 (antibody, V domains shown)
VH: QSLEESGGGLVQPGASLTLTCTASGFSFSSNYYMCWVRQAPGKGLEWIACIFTGSSGSTYYASWAKGRFTISKTSSTTVTLHVTSLTAADTATYFCARDRALSVVGYFYAAYYFDFWGPGTLVTVSS
VL: DVVMTQTPSPVSAAVGGTVTINCRASEDIESFLAWYQQKPGQPPKLLMSRTSTLESGVPSRFKGSGSGTEFTLTISDLECADAATYYCQCTDGSSSSSSYGWDAFGGGTEVVVKG
notes: Rabbit monoclonal antibody (SLAM), recombinant; also called monoclonal anti-PACAP antibody 3; 3 (c89)
B4: mAb4 (antibody, V domains shown)
VH: QSVEESGGRLVTPGTPLTLTCTASGIDLSSYAMIWVRQAPGEGLEYIGFIDAGDGNTYYASWAKGRFTISKTSTTVDLKITSPTTEDTATYFCARGDPGWSNGFALWGQGTLVTVSS
VL: DIVMTQTPASVSGAVGGTVTIKCQASQSIRNELSWYQQKPGQPPKLLIYKASTLASGVPSRFSGSGFGTEFTLTISGVQCDDAATYYCQNNYGTRRNNYVFPFGGGTEVVVKG
notes: Rabbit monoclonal antibody (SLAM), recombinant; also called monoclonal anti-PACAP antibody 4; 4 (c47)
B5: mAb6 (antibody, V domains shown)
VH: QLEESGGGLVQPGASLTLTCTTSGFSLSDNYLCWVRQAPGRGLEWVACIGIVLRSTGATYYASWAEGRFTISKTSPTTVTLEMTSLTAADTATYFCALDLGYGGPLWGPGTLVTVSS
VL: AQVLTQTPASVSAAVGGTVTINCQASQSVYNNKNLAWYQQKPGQPPKLLIYFSSTLASGVPSRFRGSGSGTQFTLTISGVQCGDAATYYCLGEFGSIWAFGGGTEVVVKG
notes: Rabbit monoclonal antibody (SLAM), recombinant; also called monoclonal anti-PACAP antibody 6; 6 (c55)
B6: mAb1 (antibody, V domains shown)
VH: QSLEESGGDLVKPGASLTLTCKASGIAFSNDYMCWVRQAPGKGLEWIACIFTGSSGSTYYASWAKGRFTISKTSSTTVTLQMTSLTAADTATYFCARDRAISVLGYFYAAYFFDFWGPGTLVTVSS
VL: B3 VL with M48I, P59S, T72I
notes: Rabbit monoclonal antibody (SLAM), cloned, recombinantly expressed and purified; also called monoclonal anti-PACAP antibody 1; 1 (c20)

Target: T1, amino terminal PACAP38 peptide (amino acids 1-13) (human)
Assay: SPR (Biacore 3000) solution competition against immobilised PACAP38; purified recombinant mAb5; peptide-fragment inhibition of binding to full-length PACAP38 (epitope mapping), not the ELISA screen

Binder | binding
B1 | no binding (tested: 1:200 molar ratio (Ab: peptide fragment))

Target: T2, PACAP38 peptide fragment 26-33
Assay: SPR (Biacore 3000), solution competition with the peptide for antibody binding to immobilised full-length PACAP38; % inhibition

Binder | binding
B2 | no binding (tested: 1:200 molar ratio (Ab:peptide))
B3 | no binding (tested: 1:200 molar ratio (Ab:peptide))
B4 | no binding (tested: 1:200 molar ratio (Ab:peptide))
B5 | no binding (tested: 1:200 molar ratio (Ab:peptide))

Target: T3, 16-23
Assay: as above

Binder | binding
B2 | no binding (tested: 1:200 molar ratio (Ab:peptide))
B3 | no binding (tested: 1:200 molar ratio (Ab:peptide))
B4 | no binding (tested: 1:200 molar ratio (Ab:peptide))
B1 | no binding (tested: 1:200 molar ratio (Ab:peptide))
B5 | no binding (tested: 1:200 molar ratio (Ab:peptide))
B6 | no binding (tested: 1:200 molar ratio (Ab:peptide))

Target: T4, 19-25
Assay: as above

Binder | binding
B2 | no binding (tested: 1:200 molar ratio (Ab:peptide))
B3 | no binding (tested: 1:200 molar ratio (Ab:peptide))
B4 | no binding (tested: 1:200 molar ratio (Ab:peptide))
B1 | no binding (tested: 1:200 molar ratio (Ab:peptide))
B5 | no binding (tested: 1:200 molar ratio (Ab:peptide))

Target: T5, 9-18
Assay: as above

Binder | binding
B2 | no binding (tested: 1:200 molar ratio (Ab:peptide))
B3 | no binding (tested: 1:200 molar ratio (Ab:peptide))
B4 | no binding (tested: 1:200 molar ratio (Ab:peptide))
B1 | no binding (tested: 1:200 molar ratio (Ab:peptide))
B5 | no binding (tested: 1:200 molar ratio (Ab:peptide))
B6 | no binding (tested: 1:200 molar ratio (Ab:peptide))

Target: T2, PACAP38 peptide fragment 26-33
Assay: SPR (Biacore 3000) solution competition against immobilised PACAP38

Binder | binding
B2 | no binding (tested: 1:200 molar ratio (Ab: peptide fragment))
B5 | no binding (tested: 1:200 molar ratio (Ab: peptide fragment))
